From patent US4499087A, “7-Phenyl-7-phenoxymethyl-hexahydro-1,4-oxazepines and their use” (BASF Aktiengesellschaft, priority 1982, dated 1985)

These compounds were tested on norepinephrine uptake (assay: Inhibition of norepinephrine uptake in rat brain synaptosomes (hippocampus, 3H norepinephrine)). Conditions: ratio of the two IC50 values of Table 1.
Type: biochemical
Description: The action mechanism of a group of therapeutically much used antidepressants must be regarded as being the inhibition of the neuronal uptake of transmitter substances (norepinephrine and/or serotonin). These properties were utilized in biological test models for characterizing potential antidepressants (inhibition of neurotransmitter uptake in rat brain synaptosomes):
Hippocampus and cortex from rat brain were prepared, and were homogenized in 0.32M sucrose solution. By means of differential centrifuging, synaptosomes were obtained, and these were suspended in buffer solution. The synaptosomes are able actively to take up added neurotransmitter substances (eg. norepinephrine or serotonine) from the surrounding medium. It is possible to antagonize this process by uptake inhibitors, as a function of concentration. Various concentrations of the test substances were added to the synaptosomes, and the mixtures were then incubated with ^3 H norepinephrine (hippocampus) or ^3 H serotonin (cortex) at 37° C. The substrate concentration was about 10 nM. The uptake was terminated by diluting the mixture with ice-cooled buffer solution, after which the synaptosomes were separated off by centrifuging and the ^3 H activity in the sediment was measured. A blank value was determined by incubation at 0° C.
From the inhibitory values determined for various inhibitor concentrations compared with the control, the mean inhibitory concentration (IC50) was calculated by linear regression following logit-log transformation.

| Compound | Quotient IC50 serotonin / IC50 Norepinephrine |
| --- | --- |
| CN1CCOC(COc2ccccc2Cl)(c2ccccc2)CC1 (centres unmarked) [Example 7] | 3.1 |
| COc1ccccc1OCC1(c2ccccc2)CCNCCO1.Cl (centres unmarked) [Example 3, 7-phenyl-7-(2-methoxyphenoxymethyl)-hexahydro-1,4-oxazepine hydrochloride] | 32.0 |
| CN(C)CCCN1c2ccccc2CCc2ccccc21 [Imipramine, reference compound] | 9.3 |
| Cl.c1ccc(OCC2(c3ccccc3)CCNCCO2)cc1 (centres unmarked) [Example 1, 7-phenyl-7-phenoxymethyl-hexahydro-1,4-oxazepine hydrochloride] | 12.7 |
| COc1ccc(OCC2(c3ccccc3)CCNCCO2)cc1.Cl (centres unmarked) [Example 5, 7-phenyl-7-(4-methoxyphenoxymethyl)-hexahydro-1,4-oxazepine hydrochloride] | 1.2 |
| Clc1ccc(OCC2(c3ccccc3)CCNCCO2)cc1 (centres unmarked) [Example 4, 7-phenyl-7-(4-chlorophenoxymethyl)-hexahydro-1,4-oxazepine] | 0.53 |
| Cl.Clc1ccccc1OCC1(c2ccccc2)CCNCCO1 (centres unmarked) [Example 2, 7-phenyl-7-(2-chlorophenoxymethyl)-hexahydro-1,4-oxazepine hydrochloride] | 164.0 |

Same assay, conditions: relative to imipramine

| Compound | times more effective in inhibiting norepinephrine uptake (compared with imipramine) |
| --- | --- |
| Cl.Clc1ccccc1OCC1(c2ccccc2)CCNCCO1 (centres unmarked) [Example 2, 7-phenyl-7-(2-chlorophenoxymethyl)-hexahydro-1,4-oxazepine hydrochloride] | 5 times |
